Not every detail of the peptide structures is certain; ends, links or a residue may be inferred. Bridge positions count the residues as written; N and C are the ends. Square brackets hold non-standard residues; d marks the D form. Ends that are not written are not given here. I, II: the chains in the order shown. Ac6c = NC1(C(=O)O)CCCCC1; Dab = NCC[C@H](N)C(=O)O
Test system: Escherichia coli 5770
Test: Mouse survival after last dose, systemic infection model without cisplatin pretreatment
Assay type: in vivo
Method: The survival rate and the dynamics of survival of mice after the last dose of an antibacterial peptide treatment (12 hours post-infection) were measured in a mouse model of Escherichia coli 5770 systemic infection. In this particular study, the animals were not pretreated with cisplatin. Ten animals were used in each group. […] In the control (infected, non-treated) and the imipenem treated rows, the first numbers reflect the number of surviving animals on the day of assay measuring the efficacy of the Chex1-Arg20 and the second numbers are the surviving control animals on the day of the A3-APO efficacy assay.

## I: [Ac6c]RPDKPRPYLPRPRPPRPVR[Dab] / II: [Ac6c]RPDKPRPYLPRPRPPRPVR (amide I:21-II:C (inferred)) [Peptide A3-APO]
2.5 mg/kg, 0 h after last dose
  number of surviving mice (10 animals each): 9
2.5 mg/kg, 3 h after last dose
  number of surviving mice (10 animals each): 7/7
2.5 mg/kg, 6 h after last dose
  number of surviving mice (10 animals each): 2
2.5 mg/kg, 9 h after last dose
  number of surviving mice (10 animals each): 1
2.5 mg/kg, 12 h after last dose
  number of surviving mice (10 animals each): 1
5 mg/kg, 0 h after last dose
  number of surviving mice (10 animals each): 10
5 mg/kg, 3 h after last dose
  number of surviving mice (10 animals each): 6
5 mg/kg, 6 h after last dose
  number of surviving mice (10 animals each): 5
5 mg/kg, 9 h after last dose
  number of surviving mice (10 animals each): 3
5 mg/kg, 12 h after last dose
  number of surviving mice (10 animals each): 3
10 mg/kg, 0 h after last dose
  number of surviving mice (10 animals each): 9
10 mg/kg, 3 h after last dose
  number of surviving mice (10 animals each): 9
10 mg/kg, 6 h after last dose
  number of surviving mice (10 animals each): 8
10 mg/kg, 9 h after last dose
  number of surviving mice (10 animals each): 3
10 mg/kg, 12 h after last dose
  number of surviving mice (10 animals each): 2

Reference: patent US8492515B2 (priority 2008, dated 2013)
